{"source": "patent US5373089A", "about": "(Northwestern University, priority 1993, dated 1994)", "experiment": "general procedure: Boc solid-phase peptide synthesis; Boc-Gly-Resin (0.7 mmol of Boc-Gly/g) on 200-400 mesh chloromethylated resin (BioRad)", "details": "whole synthesis, scale 0.5 mmole"}
{"substance": "[(S)Pmp^1,D-Trp^2,Pen^6,Arg^6 ]OT", "values": [{"measurement": "isolated yield", "setting": "from initial resin", "value": 42, "unit": "%"}, {"measurement": "isolated mass", "value": 240, "unit": "mg"}]}
